Test results published in the supplement of paper PMC10849652.
The list shows a part of the results.

By UniProt entry, the sequences of proteins in these tests, tags left out. Where a name states a change or a piece, a line headed by the entry shows the natural chain unless it says otherwise.
UniProt Q96CD0: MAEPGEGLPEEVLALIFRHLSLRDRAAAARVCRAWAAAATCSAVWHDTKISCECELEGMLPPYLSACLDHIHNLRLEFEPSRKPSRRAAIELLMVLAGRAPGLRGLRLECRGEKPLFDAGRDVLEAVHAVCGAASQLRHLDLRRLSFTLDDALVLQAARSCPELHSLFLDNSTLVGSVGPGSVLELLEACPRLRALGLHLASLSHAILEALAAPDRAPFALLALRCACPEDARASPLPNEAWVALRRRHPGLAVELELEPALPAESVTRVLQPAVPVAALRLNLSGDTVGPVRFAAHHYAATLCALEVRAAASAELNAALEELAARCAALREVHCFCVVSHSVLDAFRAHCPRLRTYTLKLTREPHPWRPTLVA
UniProt Q9UHY8: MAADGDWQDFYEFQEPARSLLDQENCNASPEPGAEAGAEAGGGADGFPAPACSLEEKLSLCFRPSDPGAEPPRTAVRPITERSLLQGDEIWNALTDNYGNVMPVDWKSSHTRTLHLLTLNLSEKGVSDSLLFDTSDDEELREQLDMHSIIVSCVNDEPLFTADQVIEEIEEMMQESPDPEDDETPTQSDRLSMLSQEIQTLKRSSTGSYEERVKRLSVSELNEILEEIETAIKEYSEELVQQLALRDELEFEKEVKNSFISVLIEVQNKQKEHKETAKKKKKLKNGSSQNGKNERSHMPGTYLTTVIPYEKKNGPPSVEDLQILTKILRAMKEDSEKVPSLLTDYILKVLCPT
UniProt Q8NFG4: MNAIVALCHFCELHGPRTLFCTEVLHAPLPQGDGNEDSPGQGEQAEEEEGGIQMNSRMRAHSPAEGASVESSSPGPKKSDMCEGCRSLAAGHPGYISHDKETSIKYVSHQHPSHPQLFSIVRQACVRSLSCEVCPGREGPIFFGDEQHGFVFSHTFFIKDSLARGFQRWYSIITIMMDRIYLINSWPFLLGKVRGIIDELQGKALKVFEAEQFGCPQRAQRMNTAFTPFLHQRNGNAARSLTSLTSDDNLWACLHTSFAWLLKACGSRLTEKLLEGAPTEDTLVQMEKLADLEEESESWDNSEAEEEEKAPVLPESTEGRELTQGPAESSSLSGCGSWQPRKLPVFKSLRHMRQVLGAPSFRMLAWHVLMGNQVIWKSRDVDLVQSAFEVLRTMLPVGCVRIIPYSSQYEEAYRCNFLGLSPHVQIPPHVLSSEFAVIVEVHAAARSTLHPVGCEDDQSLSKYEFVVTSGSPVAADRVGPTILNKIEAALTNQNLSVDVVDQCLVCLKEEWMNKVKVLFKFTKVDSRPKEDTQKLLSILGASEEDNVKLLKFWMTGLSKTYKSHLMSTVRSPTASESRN
UniProt Q9UIM3: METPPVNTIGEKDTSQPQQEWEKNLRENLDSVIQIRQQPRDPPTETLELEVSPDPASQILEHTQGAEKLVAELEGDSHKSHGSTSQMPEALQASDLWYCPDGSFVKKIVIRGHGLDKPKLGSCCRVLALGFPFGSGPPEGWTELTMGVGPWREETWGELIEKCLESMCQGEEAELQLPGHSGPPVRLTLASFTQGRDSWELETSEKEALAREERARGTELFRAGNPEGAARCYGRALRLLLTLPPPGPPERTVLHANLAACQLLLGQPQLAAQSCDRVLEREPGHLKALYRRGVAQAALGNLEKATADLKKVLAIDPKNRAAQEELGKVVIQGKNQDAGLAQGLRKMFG
UniProt O95684: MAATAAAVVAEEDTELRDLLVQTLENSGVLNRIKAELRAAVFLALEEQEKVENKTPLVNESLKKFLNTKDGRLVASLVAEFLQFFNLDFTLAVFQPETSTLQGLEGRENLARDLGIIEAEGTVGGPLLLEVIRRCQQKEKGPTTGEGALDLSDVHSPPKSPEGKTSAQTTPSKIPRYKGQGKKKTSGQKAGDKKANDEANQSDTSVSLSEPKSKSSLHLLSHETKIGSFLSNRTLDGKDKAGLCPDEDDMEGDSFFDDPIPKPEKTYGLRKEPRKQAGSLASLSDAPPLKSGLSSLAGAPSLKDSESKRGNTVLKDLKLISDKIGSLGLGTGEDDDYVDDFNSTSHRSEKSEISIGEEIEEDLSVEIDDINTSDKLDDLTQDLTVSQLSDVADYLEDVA
UniProt Q9NRD1: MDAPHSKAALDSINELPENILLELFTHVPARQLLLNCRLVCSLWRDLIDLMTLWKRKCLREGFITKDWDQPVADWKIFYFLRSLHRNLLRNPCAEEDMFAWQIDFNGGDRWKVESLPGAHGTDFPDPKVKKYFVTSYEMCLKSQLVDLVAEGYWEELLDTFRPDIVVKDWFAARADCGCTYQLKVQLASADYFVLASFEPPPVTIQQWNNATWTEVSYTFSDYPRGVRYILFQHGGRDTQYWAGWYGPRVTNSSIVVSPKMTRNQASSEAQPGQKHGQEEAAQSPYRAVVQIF
UniProt Q14315, whole entry, looked up: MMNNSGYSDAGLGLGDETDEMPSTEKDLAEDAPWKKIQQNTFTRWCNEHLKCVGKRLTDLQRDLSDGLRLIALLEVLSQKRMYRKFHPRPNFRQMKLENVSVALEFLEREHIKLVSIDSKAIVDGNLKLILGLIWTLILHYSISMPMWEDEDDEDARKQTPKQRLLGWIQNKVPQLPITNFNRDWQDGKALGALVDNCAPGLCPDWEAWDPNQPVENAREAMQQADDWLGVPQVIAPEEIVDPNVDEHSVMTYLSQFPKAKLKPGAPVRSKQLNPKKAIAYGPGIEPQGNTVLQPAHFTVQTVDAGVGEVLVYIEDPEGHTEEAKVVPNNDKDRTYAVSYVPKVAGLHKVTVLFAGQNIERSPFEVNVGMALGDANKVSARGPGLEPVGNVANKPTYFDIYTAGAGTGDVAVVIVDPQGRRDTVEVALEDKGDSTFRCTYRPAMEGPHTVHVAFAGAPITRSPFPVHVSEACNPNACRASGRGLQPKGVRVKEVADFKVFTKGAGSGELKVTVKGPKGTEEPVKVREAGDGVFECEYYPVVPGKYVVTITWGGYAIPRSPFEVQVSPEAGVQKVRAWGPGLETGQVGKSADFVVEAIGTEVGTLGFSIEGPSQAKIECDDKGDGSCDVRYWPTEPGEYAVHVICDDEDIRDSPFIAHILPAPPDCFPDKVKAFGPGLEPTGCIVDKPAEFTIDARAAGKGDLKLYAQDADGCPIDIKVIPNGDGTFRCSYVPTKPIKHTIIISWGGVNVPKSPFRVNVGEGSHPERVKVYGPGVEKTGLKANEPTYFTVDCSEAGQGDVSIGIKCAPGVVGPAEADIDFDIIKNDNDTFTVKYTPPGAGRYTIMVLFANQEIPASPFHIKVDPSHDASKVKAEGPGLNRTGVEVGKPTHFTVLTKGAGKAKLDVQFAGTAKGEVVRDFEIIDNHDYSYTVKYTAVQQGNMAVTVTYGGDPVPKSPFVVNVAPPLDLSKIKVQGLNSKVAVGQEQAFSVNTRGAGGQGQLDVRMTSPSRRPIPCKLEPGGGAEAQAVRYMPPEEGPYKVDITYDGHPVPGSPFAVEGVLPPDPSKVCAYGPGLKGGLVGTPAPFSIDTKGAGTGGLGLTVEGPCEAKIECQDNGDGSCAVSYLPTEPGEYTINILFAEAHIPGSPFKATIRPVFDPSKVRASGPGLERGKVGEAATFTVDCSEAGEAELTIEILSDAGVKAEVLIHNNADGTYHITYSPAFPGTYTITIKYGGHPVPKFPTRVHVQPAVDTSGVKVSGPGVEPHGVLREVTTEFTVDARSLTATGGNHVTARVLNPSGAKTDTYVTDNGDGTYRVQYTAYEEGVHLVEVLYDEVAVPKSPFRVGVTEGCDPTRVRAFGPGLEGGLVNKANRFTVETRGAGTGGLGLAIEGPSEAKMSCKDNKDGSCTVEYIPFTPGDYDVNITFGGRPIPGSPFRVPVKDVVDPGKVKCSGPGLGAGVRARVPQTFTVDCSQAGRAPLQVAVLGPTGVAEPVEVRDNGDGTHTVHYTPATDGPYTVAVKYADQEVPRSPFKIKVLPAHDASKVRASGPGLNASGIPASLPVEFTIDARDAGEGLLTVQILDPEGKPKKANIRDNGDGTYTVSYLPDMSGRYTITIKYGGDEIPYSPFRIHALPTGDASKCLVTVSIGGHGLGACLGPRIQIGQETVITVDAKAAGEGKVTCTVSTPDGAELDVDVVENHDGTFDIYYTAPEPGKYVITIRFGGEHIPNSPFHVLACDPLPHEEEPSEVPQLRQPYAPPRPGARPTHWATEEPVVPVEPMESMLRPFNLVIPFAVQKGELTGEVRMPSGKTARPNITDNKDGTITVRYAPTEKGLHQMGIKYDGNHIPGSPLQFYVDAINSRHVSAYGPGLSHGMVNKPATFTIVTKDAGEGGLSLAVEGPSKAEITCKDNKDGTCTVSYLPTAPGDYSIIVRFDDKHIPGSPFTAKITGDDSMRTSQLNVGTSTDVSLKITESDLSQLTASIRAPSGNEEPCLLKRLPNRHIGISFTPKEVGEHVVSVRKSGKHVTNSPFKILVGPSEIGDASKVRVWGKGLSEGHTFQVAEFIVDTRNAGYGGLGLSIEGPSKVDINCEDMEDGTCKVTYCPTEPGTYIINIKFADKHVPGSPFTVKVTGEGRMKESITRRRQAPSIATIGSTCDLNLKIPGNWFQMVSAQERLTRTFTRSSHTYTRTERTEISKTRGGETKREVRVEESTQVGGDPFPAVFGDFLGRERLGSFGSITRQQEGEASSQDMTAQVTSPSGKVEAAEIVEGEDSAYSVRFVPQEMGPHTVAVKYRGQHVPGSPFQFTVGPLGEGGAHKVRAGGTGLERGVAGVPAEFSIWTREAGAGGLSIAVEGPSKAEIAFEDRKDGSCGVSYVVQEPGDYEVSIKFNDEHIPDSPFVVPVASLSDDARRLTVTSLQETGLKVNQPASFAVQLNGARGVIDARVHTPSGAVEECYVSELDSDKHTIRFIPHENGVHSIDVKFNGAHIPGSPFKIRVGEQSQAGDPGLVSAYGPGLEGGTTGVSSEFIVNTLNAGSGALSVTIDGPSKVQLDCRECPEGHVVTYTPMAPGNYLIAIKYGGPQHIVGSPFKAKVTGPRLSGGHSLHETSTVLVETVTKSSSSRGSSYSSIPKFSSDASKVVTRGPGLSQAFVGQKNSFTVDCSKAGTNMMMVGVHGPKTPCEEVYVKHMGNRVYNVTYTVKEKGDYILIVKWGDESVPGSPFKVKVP
UniProt O95466, whole entry, looked up: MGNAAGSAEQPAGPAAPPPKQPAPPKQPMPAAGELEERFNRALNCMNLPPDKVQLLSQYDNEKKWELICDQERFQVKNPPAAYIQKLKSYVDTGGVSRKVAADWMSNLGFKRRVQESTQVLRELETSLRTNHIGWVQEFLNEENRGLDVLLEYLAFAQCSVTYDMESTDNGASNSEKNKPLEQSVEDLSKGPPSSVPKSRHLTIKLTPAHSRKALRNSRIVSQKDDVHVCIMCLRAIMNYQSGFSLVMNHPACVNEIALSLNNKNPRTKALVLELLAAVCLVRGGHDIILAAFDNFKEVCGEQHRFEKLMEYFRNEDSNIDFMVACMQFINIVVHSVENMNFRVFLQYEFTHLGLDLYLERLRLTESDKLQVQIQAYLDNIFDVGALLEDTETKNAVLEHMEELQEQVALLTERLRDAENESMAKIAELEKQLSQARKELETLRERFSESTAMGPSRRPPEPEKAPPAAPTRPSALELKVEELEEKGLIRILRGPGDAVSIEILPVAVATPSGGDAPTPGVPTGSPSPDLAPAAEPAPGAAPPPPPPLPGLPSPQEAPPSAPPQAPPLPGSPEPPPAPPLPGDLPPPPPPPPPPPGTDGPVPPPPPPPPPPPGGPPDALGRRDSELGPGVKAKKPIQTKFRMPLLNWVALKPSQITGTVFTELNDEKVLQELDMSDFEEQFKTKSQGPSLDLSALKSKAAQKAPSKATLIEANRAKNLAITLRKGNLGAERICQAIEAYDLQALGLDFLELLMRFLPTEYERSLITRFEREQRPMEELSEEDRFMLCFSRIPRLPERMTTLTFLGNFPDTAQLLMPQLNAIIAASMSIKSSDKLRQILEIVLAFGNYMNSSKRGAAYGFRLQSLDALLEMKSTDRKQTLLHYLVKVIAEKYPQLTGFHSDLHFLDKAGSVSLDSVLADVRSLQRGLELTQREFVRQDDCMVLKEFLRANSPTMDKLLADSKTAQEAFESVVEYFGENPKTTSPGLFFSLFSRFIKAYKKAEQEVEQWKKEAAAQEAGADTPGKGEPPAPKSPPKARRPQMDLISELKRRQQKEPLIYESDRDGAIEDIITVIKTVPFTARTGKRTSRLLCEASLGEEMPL
UniProt Q14318: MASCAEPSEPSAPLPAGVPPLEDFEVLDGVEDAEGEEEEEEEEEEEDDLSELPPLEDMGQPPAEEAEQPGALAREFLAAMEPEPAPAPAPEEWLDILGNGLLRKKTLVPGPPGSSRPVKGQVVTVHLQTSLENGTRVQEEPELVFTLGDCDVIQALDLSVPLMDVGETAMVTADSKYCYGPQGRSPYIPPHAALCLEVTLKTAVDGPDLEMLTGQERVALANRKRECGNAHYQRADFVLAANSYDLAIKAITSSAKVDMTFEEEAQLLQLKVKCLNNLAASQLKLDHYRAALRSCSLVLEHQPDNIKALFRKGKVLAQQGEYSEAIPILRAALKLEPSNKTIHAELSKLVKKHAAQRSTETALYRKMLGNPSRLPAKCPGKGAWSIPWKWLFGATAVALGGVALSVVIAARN

These targets were tested with Cc1nc(Nc2ncc(C(=O)Nc3c(C)cccc3Cl)s2)cc(N2CCN(CCO)CC2)n1 [dasatinib] (assay: log2 fold change, soluble protein after heating vs DMSO (PISA); higher = thermal stabilisation; K562 lysate, 10 uM; active = over 0.2 and 3.5 SD of the protein, either way, in both replicates (recomputed)).
Procedure, shortened: (§1)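 K562 pellets were dounce-homogenised in PBS pH 7.4 containing 1 mM MgCl2, and the crude extract, at 1 mg/mL protein, was exposed to 10 μM compound for 30 min. Aliquots were heated for 3 min across 48°C-58°C, pooled, brought to 0.5% NP-40 at 4°C and spun at 21,000xg for 90 min, with the supernatant taken as soluble protein. TMTpro 16plex LC-MS/MS with equalised channel sums quantified that protein. Values are log-two fold changes in thermal stability relative to solvent controls, taken from duplicates.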

log2 fold change, inactive:
FBXL18 isoform 4 (UniProt Q96ME1) -0.004, FKBP5 (UniProt Q13451) -0.039, FDXR isoform 7 (UniProt P22570) -0.026, FLNB isoform 8 (UniProt O75369) 0.027, FBXL8 (UniProt Q96CD0) -0.059, FERMT3 (UniProt Q86UX7) -0.01, FNBP1L (UniProt Q5T0N5) -0.131, FBXO3 (UniProt Q9UK99) -0.027, FEZ2 isoform 2 (UniProt Q9UHY8) -0.007, FLCN (UniProt Q8NFG4) -0.08

The targets below were run with Cc1ncc(-c2ccnc(Nc3ccc(S(C)(=O)=O)cc3)n2)n1C(C)C in the same assay as above.
Procedure, shortened: as §1

log2 fold change, inactive:
FKBPL (UniProt Q9UIM3) 0.004, FAR1 (UniProt Q8WVX9) 0.149, FLII (UniProt Q13045) 0.001, FAU (UniProt E9PR30) 0.005, FGFR1OP (UniProt O95684) 0.01, FNTB (UniProt P49356) -0.04, FBXO6 (UniProt Q9NRD1) 0.021, FGD6 (UniProt Q6ZV73) 0.107, FLAD1 (UniProt Q8NFF5) 0.024, FLNC (UniProt Q14315) 0.006, FAM8A1 (UniProt Q9UBU6) 0.009, FBXW9 (UniProt Q5XUX1) 0.065, FAM98C (UniProt Q17RN3) 0.015, FIBP (UniProt O43427) -0.024, FBXL12 (UniProt Q9NXK8) 0.069, FBLL1 (UniProt A6NHQ2) -0.101, FN1 (UniProt P02751) 0.026, FECH isoform 2 (UniProt P22830) 0.364, FAM98A (UniProt Q8NCA5) 0.018, FASN (UniProt P49327) -0.007, FKBP2 (UniProt P26885) -0.044, FMNL1 isoform 3 (UniProt O95466) -0.135, FKBP8 isoform 2 (UniProt Q14318) 0.014, FBXL18 isoform 4 (UniProt Q96ME1) 0.033, FKBP5 (UniProt Q13451) -0.013, FDXR isoform 7 (UniProt P22570) -0.027, FLNB isoform 8 (UniProt O75369) 0.007, FBXL8 (UniProt Q96CD0) -0.069, FERMT3 (UniProt Q86UX7) -0.016, FNBP1L (UniProt Q5T0N5) 0.007, FBXO3 (UniProt Q9UK99) 0.049, FEZ2 isoform 2 (UniProt Q9UHY8) 0.02, FLCN (UniProt Q8NFG4) -0.119
